Measured values as given in the odorant receptor screen of Mainland et al. (2015).
“And” between values parts separate entries of the source, which are not always exact repeats. Identical values can stand only once. The list shows a part of the results. Single wells; the ratio to wells without odorant was worked out here, and repeats agree poorly.

Key:
Assay in all cases: odorant receptor activation (CRE luciferase / Renilla) (fold of no-odor wells); higher = more activation
Settings in all cases: 100 µM
OR10H5 A224D clone 1294 = system: OR10H5 A224D clone 1294
OR10J1 clone 1711 = system: OR10J1 clone 1711
OR10J3 clone 1458 = system: OR10J3 clone 1458
OR10J5 R233W clone 1410 = system: OR10J5 R233W clone 1410
OR10J5 clone 1037 = system: OR10J5 clone 1037
OR10K1 clone 1024 = system: OR10K1 clone 1024
OR10K2 clone 1040 = system: OR10K2 clone 1040
OR10P1 clone 1254 = system: OR10P1 clone 1254
OR10Q1 clone 1202 = system: OR10Q1 clone 1202
[1] = system: OR10R2 A191T/E216G/L239F clone 1304

Structure (SMILES): CCOc1cc(C=O)ccc1O [ethyl vanillin]
- odorant receptor activation (OR10H5 A224D clone 1294): 0.914 and 1.26
- odorant receptor activation (OR10J1 clone 1711): 0.859
- odorant receptor activation (OR10J3 clone 1458): 0.896
- odorant receptor activation (OR10J5 R233W clone 1410): 0.996 and 0.962
- odorant receptor activation (OR10J5 clone 1037): 1.67 and 0.973
- odorant receptor activation (OR10K1 clone 1024): 1.14 and 1.35
- odorant receptor activation (OR10K2 clone 1040): 1.77 and 1.14
- odorant receptor activation (OR10P1 clone 1254): 2.48 and 1.08
- odorant receptor activation (OR10Q1 clone 1202): 1.46 and 1.34
- odorant receptor activation [1]: 1.33 and 1.16

Structure (SMILES): CCC(C)=O [2-butanone]
- odorant receptor activation (OR10H5 A224D clone 1294): 0.63
- odorant receptor activation (OR10J1 clone 1711): 0.857
- odorant receptor activation (OR10J3 clone 1458): 0.881
- odorant receptor activation (OR10J5 R233W clone 1410): 1.69
- odorant receptor activation (OR10J5 clone 1037): 2.7
- odorant receptor activation (OR10K1 clone 1024): 2.85
- odorant receptor activation (OR10K2 clone 1040): 2.67
- odorant receptor activation (OR10P1 clone 1254): 1.02
- odorant receptor activation (OR10Q1 clone 1202): 0.908
- odorant receptor activation [1]: 1.05

Structure (SMILES): CS [methanethiol]
- odorant receptor activation (OR10H5 A224D clone 1294): 0.869
- odorant receptor activation (OR10J1 clone 1711): 0.928
- odorant receptor activation (OR10J3 clone 1458): 0.739
- odorant receptor activation (OR10J5 R233W clone 1410): 1.25
- odorant receptor activation (OR10J5 clone 1037): 1.04
- odorant receptor activation (OR10K1 clone 1024): 1.65
- odorant receptor activation (OR10K2 clone 1040): 1.05
- odorant receptor activation (OR10P1 clone 1254): 0.821
- odorant receptor activation (OR10Q1 clone 1202): 0.954
- odorant receptor activation [1]: 0.985

Structure (SMILES): CCCCOC(C)=O [butyl acetate]
- odorant receptor activation (OR10H5 A224D clone 1294): 0.637
- odorant receptor activation (OR10J1 clone 1711): 0.881
- odorant receptor activation (OR10J3 clone 1458): 1.09
- odorant receptor activation (OR10J5 R233W clone 1410): 0.193
- odorant receptor activation (OR10J5 clone 1037): 1.48
- odorant receptor activation (OR10K1 clone 1024): 1.23
- odorant receptor activation (OR10K2 clone 1040): 0.969
- odorant receptor activation (OR10P1 clone 1254): 0.8
- odorant receptor activation (OR10Q1 clone 1202): 1.01
- odorant receptor activation [1]: 0.691
